Some results come without the dose or concentration used.
Tested on: ^23 Na in rat liver
Experiment: ^23 Na T1 and T2 relaxation measurements in rat liver with shift reagent present
Assay type: in vivo
Details: Table I

## thulium(III) 1,4,7,10-tetraazacyclododecane-1,4,7,10-tetrakis (methylene phosphonate) [TmDOTP^5-]
intracellular
  T2(fast), intracellular: 1.3 ± 0.1
Shifted peak
  T2(slow), shifted peak: 10.0 ± 2.8

Reference: patent publication US5951473A, “Determination of intracellular sodium and potassium ions by NMR” (Board of Regents, The University of Texas System, priority 1997, dated 1999)
